Source: article PMC5543055
Results are given in words; binding and its absence hold for the method and conditions named. Binding seen in cells or lysates may run through a third protein. Some entries that bind do so weakly or less than the wild type.

Protein sequences, listed by entry. Tags and fused reporters are not part of them. Lines headed by an entry give the natural chain unless they say otherwise; changes in a name come on top.
UniProt P40337: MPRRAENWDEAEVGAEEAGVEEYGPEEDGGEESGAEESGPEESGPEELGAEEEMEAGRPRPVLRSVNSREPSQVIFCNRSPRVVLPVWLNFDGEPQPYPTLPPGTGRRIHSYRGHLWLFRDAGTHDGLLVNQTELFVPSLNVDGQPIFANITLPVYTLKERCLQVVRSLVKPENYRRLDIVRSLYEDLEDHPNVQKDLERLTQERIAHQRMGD
UniProt P49327: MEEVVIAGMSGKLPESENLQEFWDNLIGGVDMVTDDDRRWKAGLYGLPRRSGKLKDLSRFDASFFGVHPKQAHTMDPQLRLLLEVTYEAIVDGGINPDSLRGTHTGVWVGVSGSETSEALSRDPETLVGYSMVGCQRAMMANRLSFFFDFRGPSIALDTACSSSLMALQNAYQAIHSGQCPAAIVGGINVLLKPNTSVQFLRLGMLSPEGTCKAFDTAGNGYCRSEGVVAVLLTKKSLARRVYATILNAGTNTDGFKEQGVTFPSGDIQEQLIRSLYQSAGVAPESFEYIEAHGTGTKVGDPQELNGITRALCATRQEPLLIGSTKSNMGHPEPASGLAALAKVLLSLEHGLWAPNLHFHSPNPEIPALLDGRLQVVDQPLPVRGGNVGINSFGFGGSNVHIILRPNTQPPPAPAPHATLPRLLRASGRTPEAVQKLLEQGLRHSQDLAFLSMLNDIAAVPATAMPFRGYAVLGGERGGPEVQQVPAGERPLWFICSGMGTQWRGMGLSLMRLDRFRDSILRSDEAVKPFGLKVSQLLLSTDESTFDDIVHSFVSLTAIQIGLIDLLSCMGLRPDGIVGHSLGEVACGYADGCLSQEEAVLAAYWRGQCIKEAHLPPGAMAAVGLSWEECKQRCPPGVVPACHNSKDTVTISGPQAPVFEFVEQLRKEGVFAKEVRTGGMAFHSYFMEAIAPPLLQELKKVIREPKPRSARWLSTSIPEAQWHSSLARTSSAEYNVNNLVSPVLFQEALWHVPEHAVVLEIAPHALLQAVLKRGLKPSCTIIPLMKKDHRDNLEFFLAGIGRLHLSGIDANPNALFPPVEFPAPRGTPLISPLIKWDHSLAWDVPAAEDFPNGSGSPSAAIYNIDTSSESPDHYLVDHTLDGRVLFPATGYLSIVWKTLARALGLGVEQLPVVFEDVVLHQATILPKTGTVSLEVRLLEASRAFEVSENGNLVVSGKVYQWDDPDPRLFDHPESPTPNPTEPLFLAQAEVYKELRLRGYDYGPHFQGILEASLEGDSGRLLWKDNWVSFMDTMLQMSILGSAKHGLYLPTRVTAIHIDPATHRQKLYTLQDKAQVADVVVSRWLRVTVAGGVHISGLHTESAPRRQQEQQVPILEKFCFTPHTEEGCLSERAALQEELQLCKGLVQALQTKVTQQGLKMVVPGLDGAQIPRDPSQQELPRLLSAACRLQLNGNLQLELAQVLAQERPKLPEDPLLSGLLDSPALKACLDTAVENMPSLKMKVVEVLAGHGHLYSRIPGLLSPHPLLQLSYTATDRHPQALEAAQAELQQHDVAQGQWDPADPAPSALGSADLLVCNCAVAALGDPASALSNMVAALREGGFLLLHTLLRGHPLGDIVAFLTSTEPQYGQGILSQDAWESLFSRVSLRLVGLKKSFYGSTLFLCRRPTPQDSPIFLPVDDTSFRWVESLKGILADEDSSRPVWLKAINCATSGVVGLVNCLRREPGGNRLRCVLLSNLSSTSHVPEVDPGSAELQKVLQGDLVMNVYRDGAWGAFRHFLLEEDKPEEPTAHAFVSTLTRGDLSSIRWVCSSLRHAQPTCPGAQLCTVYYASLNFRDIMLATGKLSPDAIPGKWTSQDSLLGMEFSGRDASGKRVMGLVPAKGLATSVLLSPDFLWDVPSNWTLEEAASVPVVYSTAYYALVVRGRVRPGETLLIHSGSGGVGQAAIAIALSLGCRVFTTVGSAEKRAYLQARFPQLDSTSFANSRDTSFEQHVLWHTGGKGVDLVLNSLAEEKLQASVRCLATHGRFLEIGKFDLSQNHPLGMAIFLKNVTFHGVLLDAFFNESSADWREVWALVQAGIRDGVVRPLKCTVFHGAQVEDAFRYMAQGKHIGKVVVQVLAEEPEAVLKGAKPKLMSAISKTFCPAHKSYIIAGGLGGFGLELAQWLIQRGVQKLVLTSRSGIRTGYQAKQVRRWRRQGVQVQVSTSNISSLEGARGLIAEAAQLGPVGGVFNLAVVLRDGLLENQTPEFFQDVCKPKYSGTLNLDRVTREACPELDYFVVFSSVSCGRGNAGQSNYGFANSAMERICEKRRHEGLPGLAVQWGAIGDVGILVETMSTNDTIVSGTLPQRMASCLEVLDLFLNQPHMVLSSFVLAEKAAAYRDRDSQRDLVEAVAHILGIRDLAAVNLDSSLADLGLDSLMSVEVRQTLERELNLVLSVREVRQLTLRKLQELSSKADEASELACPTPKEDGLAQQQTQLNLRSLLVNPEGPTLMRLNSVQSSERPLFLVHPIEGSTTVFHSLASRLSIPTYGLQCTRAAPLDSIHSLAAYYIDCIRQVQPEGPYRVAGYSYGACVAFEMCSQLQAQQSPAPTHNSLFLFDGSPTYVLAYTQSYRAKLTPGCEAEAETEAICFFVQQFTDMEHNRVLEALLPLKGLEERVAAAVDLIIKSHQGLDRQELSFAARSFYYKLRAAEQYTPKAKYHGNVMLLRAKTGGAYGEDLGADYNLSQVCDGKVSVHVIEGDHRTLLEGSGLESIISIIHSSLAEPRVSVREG
UniProt P27708: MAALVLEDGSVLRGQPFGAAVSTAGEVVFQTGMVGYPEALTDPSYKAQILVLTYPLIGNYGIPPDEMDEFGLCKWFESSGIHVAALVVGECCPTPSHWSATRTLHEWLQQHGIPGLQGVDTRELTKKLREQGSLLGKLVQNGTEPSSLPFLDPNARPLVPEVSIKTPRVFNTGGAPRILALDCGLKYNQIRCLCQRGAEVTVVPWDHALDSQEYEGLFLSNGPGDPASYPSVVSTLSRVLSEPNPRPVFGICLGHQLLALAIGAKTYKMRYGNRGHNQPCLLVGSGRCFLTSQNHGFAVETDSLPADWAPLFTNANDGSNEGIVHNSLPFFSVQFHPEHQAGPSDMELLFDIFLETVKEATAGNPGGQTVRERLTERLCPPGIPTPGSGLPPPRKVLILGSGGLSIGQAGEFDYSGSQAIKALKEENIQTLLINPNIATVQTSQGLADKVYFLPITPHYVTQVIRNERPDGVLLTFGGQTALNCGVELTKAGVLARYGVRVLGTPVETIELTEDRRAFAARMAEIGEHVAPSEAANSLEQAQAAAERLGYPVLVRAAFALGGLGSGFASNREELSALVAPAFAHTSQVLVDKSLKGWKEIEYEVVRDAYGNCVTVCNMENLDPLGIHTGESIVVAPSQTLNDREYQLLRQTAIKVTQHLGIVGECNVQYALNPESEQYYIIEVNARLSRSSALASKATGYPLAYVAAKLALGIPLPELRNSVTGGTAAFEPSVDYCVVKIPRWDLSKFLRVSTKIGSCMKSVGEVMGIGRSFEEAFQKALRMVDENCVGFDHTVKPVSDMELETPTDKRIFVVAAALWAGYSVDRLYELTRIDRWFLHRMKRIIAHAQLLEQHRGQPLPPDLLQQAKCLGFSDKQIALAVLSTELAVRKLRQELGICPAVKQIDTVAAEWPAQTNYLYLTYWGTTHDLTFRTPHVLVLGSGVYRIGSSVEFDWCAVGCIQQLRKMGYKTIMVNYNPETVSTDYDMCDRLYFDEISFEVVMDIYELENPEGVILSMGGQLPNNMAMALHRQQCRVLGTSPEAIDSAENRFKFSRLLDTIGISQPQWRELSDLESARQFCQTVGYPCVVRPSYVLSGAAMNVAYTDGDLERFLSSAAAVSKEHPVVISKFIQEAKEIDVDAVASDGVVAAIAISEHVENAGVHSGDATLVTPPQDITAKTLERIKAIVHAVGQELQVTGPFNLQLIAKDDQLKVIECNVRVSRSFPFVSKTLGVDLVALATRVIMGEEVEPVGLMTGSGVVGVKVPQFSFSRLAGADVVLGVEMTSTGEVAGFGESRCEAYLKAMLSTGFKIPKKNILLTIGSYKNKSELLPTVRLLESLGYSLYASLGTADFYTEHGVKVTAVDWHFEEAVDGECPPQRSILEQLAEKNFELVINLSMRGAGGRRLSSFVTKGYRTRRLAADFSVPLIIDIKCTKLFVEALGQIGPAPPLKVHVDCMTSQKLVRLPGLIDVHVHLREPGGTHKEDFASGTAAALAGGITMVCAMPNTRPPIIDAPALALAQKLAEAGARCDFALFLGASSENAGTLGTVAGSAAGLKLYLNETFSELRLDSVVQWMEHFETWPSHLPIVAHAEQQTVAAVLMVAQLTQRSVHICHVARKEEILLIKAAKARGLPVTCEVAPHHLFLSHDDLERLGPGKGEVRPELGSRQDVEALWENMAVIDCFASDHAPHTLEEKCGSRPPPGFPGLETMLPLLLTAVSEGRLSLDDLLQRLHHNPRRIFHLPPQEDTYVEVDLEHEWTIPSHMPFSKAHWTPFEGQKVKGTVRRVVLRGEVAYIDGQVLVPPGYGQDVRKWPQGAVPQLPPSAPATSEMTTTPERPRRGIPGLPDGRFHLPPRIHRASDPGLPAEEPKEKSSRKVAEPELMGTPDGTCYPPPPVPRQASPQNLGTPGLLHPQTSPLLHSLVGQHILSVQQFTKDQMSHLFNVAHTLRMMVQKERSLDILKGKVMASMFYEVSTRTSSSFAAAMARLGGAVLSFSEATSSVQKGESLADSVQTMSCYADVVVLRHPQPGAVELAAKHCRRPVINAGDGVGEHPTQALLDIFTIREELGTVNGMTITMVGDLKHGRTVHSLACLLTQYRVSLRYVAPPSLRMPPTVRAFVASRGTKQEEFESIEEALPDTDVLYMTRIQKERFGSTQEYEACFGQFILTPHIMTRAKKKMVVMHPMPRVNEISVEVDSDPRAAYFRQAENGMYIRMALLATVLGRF

What was measured:
[1] = target: Flag-tagged wild-type von Hippel-Lindau tumour suppressor protein (pVHL), stably expressed in HCT116 (human) (UniProt P40337); test: co-IP; whole cell extracts of HCT116 stably expressing Flag-tagged proteins; anti-Flag M2 affinity agarose overnight, washes up to 300 mM NaCl, elution with Flag peptide, western blot (and silver staining)
[2] = target: Flag-tagged pVHL-H115Q, stably expressed in HCT116 (human) (UniProt P40337); test: as above
[3] = target: Flag-tagged FASN stably expressed in HCT116 (human) (UniProt P49327); test: as above
[4] = target: fatty acid synthase (FASN), endogenous in HCT116 (human (endogenous in HCT116)) (UniProt P49327); test: co-IP; endogenous proteins from HCT116 whole cell extracts (M-PER buffer, 10 µM MG132); antibody-conjugated Protein-G Sepharose overnight, washes up to 300 mM NaCl, elution with 1% SDS, western blot

Measured: binding

carbamoyl-phosphate synthetase 2, aspartate transcarbamylase and dihydroorotase (CAD), endogenous in HCT116 (from UniProt P27708 1-2225) (enzyme)
binds: all assays above
